In publication PMC4059888:

Target: T1, Nsl1 (mouse (endogenous in mESCs)) (UniProt Q80TG1)
T1 sequence: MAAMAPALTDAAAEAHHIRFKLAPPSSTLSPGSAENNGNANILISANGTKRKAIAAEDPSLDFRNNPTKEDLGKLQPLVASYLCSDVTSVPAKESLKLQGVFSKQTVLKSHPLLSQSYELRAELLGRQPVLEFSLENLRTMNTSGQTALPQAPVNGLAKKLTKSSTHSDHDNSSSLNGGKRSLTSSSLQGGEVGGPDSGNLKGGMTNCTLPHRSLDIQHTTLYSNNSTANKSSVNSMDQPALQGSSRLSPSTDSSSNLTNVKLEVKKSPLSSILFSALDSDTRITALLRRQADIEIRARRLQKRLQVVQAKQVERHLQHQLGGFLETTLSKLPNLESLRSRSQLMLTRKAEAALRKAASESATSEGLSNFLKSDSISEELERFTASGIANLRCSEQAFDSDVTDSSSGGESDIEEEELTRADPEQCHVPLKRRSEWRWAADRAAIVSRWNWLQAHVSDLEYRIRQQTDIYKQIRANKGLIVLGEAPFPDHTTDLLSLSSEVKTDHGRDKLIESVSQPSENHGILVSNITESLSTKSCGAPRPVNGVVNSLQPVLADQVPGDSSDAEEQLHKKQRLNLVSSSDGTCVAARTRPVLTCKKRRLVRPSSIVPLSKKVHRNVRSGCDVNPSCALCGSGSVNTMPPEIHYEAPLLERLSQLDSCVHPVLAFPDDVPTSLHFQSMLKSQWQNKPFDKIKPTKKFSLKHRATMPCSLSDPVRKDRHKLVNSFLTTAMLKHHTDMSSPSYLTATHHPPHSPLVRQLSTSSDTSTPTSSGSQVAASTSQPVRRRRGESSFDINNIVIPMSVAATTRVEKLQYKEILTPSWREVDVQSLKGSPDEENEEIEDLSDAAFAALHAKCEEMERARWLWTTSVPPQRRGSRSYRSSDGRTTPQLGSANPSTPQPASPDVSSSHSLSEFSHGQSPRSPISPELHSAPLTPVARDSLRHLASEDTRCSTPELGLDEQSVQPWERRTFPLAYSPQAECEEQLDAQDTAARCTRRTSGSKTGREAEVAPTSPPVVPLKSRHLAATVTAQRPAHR
Assay: affinity purification with mass spectrometry; anti-Msl1 (3208) or anti-Nsl1 (3130) antibody on protein A Sepharose, 3 mg (Msl1) or 1 mg (Nsl1) mESC nuclear extract; washes in IP buffer (25 mM Tris-HCl pH 7.9, 10% glycerol, 0.1% NP40, 0.5 mM DTT, 5 mM MgCl2) with 100 mM then 250 mM KCl; glycine pH 2.6 elution; MudPIT; MOCK IP with an antibody to yeast TAF90 as control

B1: Mof (male absent on the first) (enzyme, UniProt Q9D1P2 1-458)
chain: MAAQGATAAVAATTSGTVGEGEPGPGENAAVEGPARSPGRVSPPTPARGEPEVTVEIGETYLCRRPDSTWHSAEVIQSRVNDQEGREEFYVHYVGFNRRLDEWVDKNRLALTKTVKDAVQKNSEKYLSELAEQPERKITRNQKRKHDEINHVQKTYAEMDPTTAALEKEHEAITKVKYVDKIHIGNYEIDAWYFSPFPEDYGKQPKLWLCEYCLKYMKFEKSYRFHLGQCQWRQPPGKEIYRKSNISVYEVDGKDHKIYCQNLCLLAKLFLDHKTLYFDVEPFVFYILTEVDRQGAHIVGYFSKEKESPDGNNVACILTLPPYQRRGYGKFLIAFSYELSKLESTVGSPEKPLSDLGKLSYRSYWSWVLLEILRDFRGTLSIKDLSQMTSITQNDIISTLQSLNMVKYWKGQHVICVTPKLVEEHLKSAQYKKPPITVDSVCLKWAPPKHKQVKLSKK
In the case of B1, the binding is reported as “binds”.

Results are given in words; binding and its absence hold for the method and conditions named. Binding seen in cells or lysates may run through a third protein. These calls come from enrichment with a bait or labelling near it, and not all partners need be listed.
